According to patent publication US12021195B2, “Asymmetric electrolyte salts and batteries incorporating such salts” (OHIO STATE INNOVATION FOUNDATION, priority 2019, dated 2024):

What was measured:
[1] = Potassium-oxygen battery cycling; conditions: no K+-Nafion membrane
[2] = Al anodic dissolution, cyclic voltammetry of Li∥Al coin cells; conditions: after Li∥Al coin cell testing
[3] = vs. Li+/Li, cited from earlier work

SMILES: COCCC[N-]S(=O)(=O)C(F)(F)F.[K+] [KMPSA]
- cycle life of potassium-oxygen battery ([1]; 0.2× KMPSA/DME): about 10 cycles
- cycle life of potassium-oxygen battery ([1]; 0.4× KMPSA/DME): over 60 cycles

SMILES: O=S(=O)([N-]CC(F)(F)C(F)(F)F)C(F)(F)F.[Li+] [LiFPSA]
- pitting of the Al electrode, optical microscope [2]: Some pits

SMILES: COCCC[N-]S(=O)(=O)C(F)(F)F.[Li+] [LiMPSA]
- pitting of the Al electrode, optical microscope [2]: negligible pitting

SMILES: O=S(=O)([O-])C(F)(F)F.[Li+] [LiOTf, lithium trifluoromethanesulfonate]
- potential above which significant pitting develops ([3]; carbonate solvent): above 3.0 V
- potential above which aluminum undergoes anodic dissolution [3]: above 2.7 V

SMILES: O=S(=O)([N-]S(=O)(=O)C(F)(F)F)C(F)(F)F.[Li+] [LiTFSI, lithium bis(trifluoromethanesulfonyl)imide, reference compound]
- pitting of the Al electrode, optical microscope [2]: significant amount of aluminum pits
- potential above which aluminum undergoes anodic dissolution [3]: above 3.5 V
